In patent US9657091 (AC IMMUNE S A, dated 2017):
Residue numbers refer to the chain shown, from its start. Results are given in words; binding and its absence hold for the method and conditions named. Some results given as binding are weak or reduced against the parent protein; the word gives no strength. Each block holds one binder with its values, some of them ahead of it.

Sequences of proteins named here, by UniProt entry; tags and fusion partners are left off. A change or cut given only in a name is not applied to a line headed by its entry.
UniProt P10636: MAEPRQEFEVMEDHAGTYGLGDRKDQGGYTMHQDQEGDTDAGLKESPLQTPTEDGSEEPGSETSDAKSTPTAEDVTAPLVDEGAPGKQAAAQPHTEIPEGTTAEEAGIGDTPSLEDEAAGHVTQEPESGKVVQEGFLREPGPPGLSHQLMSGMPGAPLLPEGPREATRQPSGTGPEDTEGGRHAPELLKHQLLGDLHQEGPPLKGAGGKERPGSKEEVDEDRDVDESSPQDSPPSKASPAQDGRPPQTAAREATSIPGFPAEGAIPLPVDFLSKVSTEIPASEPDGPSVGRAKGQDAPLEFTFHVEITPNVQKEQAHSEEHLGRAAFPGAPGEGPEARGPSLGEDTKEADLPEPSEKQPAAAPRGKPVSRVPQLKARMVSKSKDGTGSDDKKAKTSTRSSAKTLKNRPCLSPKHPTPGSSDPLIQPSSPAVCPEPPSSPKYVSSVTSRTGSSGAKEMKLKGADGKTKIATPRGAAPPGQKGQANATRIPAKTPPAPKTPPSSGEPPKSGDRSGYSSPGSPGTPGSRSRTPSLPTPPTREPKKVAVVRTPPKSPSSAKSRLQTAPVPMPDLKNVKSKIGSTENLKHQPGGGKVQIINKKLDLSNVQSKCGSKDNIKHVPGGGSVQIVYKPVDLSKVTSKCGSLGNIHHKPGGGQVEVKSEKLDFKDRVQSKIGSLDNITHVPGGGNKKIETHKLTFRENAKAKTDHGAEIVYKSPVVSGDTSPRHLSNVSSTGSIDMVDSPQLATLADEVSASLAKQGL

Assays:
[1] = molecular target: longest isoform (441aa) of human Tau with the P301L mutation, as Tau tangles and neuropil threads in brain sections of biGT transgenic mice (human) (UniProt P10636); assay: TAUPIR immunostaining (figure legend)
[2] = molecular target: longest isoform (441aa) of human Tau with the P301L mutation, as Tau tangles and neuropil threads in brain sections of biGT transgenic mice (human) (UniProt P10636); assay: TAUPIR immunostaining of biGT mouse brain sections

binding [1]: binds
binding [2]: binds
B1: humanized antibody hACl-36-2B6-Ab1 (IgG4) (antibody, V domains shown)
VH: QVQLVQSGAEVKKPGSSVKVSCKASGYTFTDYYMNWVRQAPGQGLEWIGDINPNRGGTTYNQKFKGRVTITVDKSTSTAYMELSSLRSEDTAVYYCASYYAVGYWGQGTTVTVSS
VL: DIVMTQTPLSLPVTPGEPASISCRSSQSLVHSHGKTYLHWYLQKPGQSPQLLIYKVSNRFSGVPDRFSGSGSGTDFTLKISRVEAEDVGVYFCSQTAHFPYTFGGGTKVEIKR
notes: Humanized IgG4, kappa; also called 2B6A10C11

binding [1]: binds
binding [2]: binds
B2: humanized antibody hACl-36-3A8-Ab1 (IgG4) (antibody, V domains shown)
VH: B1 VH
VL: B1 VL with S28R
notes: Humanized IgG4, kappa; Tested as a supernatant containing the antibody; also called 3A8A12G7
